Results deposited as PubChem BioAssay AID743454 (Peter MacCallum Cancer Centre, 2014)

Assay: 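Genes whose loss kills vorinostat-resistant colon cancer cells under vorinostat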 (primary screen)
Cells: human HCT116-VR colon cancer cells, selected for vorinostat resistance
Reagent: siRNA pool against human genes, 40 nM siRNA pool
Timing: vorinostat for 24 h, read-out about 72 h after transfection
Conditions: vorinostat at 2.5 µM final
Measured: 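Two measures, CellTiter-Fluor viability and luminescent caspase 3/7 activity, each as fold change against same-plate mock wells, mean of duplicates, then screen-wide robust z-score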
Direction: viability robust z-score: higher = more viable cells than screen typical; caspase robust z-score: higher = more caspase 3/7 activity than screen typical
Call rule: 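Hits are knock-downs in viability class RV1/RV2 or caspase class CA1/CA2, excluding ones that killed cells in the no-drug cell-count arm; hits then retested with single siRNAs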
In all, the deposit lists about 18,000 reagents; below is an unselected part. 450 of all reagents (2.5%) were called active. 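Single biological run; no consistent viability z cut-off exists, so the class columns, not z-scores, define the calls.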

How did the screen score LINC01588?
viability hit class: no change; caspase hit class: no change; viability robust z-score: -0.54; caspase robust z-score: -0.33; Outcome: inactive

What did the screen give for PAK1IP1?
viability hit class: no change; caspase hit class: no change; viability robust z-score: -0.96; caspase robust z-score: 0.38; Outcome: inactive

Which result is listed for NKRF?
viability hit class: no change; caspase hit class: no change; viability robust z-score: 0.65; caspase robust z-score: -0.06; Outcome: inactive

Which result is listed for ECPAS?
viability hit class: no change; caspase hit class: no change; viability robust z-score: 0.26; caspase robust z-score: 0.09; Outcome: inactive

What is on record for ZIK1?
viability hit class: no change; caspase hit class: no change; viability robust z-score: 1.7; caspase robust z-score: 0.5; Outcome: inactive

How did the screen score SGO2?
viability hit class: no change; caspase hit class: no change; viability robust z-score: 0.89; caspase robust z-score: 0.12; Outcome: inactive

What did the screen give for BCL2L2?
viability hit class: no change; caspase hit class: no change; viability robust z-score: 1.17; caspase robust z-score: 0.05; Outcome: inactive

With NAPB, what does the deposit list?
viability hit class: no change; caspase hit class: no change; viability robust z-score: -1.03; caspase robust z-score: -0.51; Outcome: inactive

What did the screen give for UNC5D?
viability hit class: no change; caspase hit class: no change; viability robust z-score: -0.92; caspase robust z-score: -1.5; Outcome: inactive

Which result is listed for CA12?
viability hit class: no change; caspase hit class: no change; viability robust z-score: 1.15; caspase robust z-score: -0.08; Outcome: inactive

What is on record for SEMA4F?
viability hit class: no change; caspase hit class: CA1 (caspase activation); viability robust z-score: -0.59; caspase robust z-score: 6.73; Outcome: active

What did the screen give for SCGB2B2?
viability hit class: no change; caspase hit class: no change; viability robust z-score: 0.55; caspase robust z-score: -0.17; Outcome: inactive

With BTC, what was measured?
viability hit class: no change; caspase hit class: no change; viability robust z-score: -0.16; caspase robust z-score: 4.43; Outcome: inactive

With SND1, what was measured?
viability hit class: no change; caspase hit class: no change; viability robust z-score: -0.47; caspase robust z-score: -0.72; Outcome: inactive

With DHRS4L1, what does the deposit list?
viability hit class: no change; caspase hit class: no change; viability robust z-score: 1.36; caspase robust z-score: -0.02; Outcome: inactive

How did the screen score DBN1?
viability hit class: no change; caspase hit class: no change; viability robust z-score: 0.85; caspase robust z-score: -0.8; Outcome: inactive

What did the screen give for SSX1?
viability hit class: no change; caspase hit class: no change; viability robust z-score: -0.92; caspase robust z-score: -0.06; Outcome: inactive

With SPATC1, what does the deposit list?
viability hit class: no change; caspase hit class: no change; viability robust z-score: 0.26; caspase robust z-score: -1.22; Outcome: inactive

How did the screen score PRM1?
viability hit class: no change; caspase hit class: no change; viability robust z-score: 0.02; caspase robust z-score: 4.35; Outcome: inactive

With GDF7, how do the results read?
viability hit class: no change; caspase hit class: no change; viability robust z-score: -0.02; caspase robust z-score: -0.72; Outcome: inactive

For DMAP1, what was measured?
viability hit class: no change; caspase hit class: no change; viability robust z-score: -1.19; caspase robust z-score: 0.82; Outcome: inactive
